Test results from patent US5707963A (Health Research, Incorporated, priority 1996, dated 1998).

Test: peptide synthesis
Conditions: whole synthesis

Substance: Leu Ser Glu Asp Lys Leu Leu Ala Cys Gly Glu Gly Ala Ala Asp Ile ile Ile Gly His Leu Cys Ile Arg His Glu Met Thr Pro Val Ash Pro Gly Val (LSEDKLLACGEGAADIIIGHLCIRHEMTPVNPGV)
- final HPLC purity: 99.9%
